Values quoted from earlier work in patent US20130052280A1, “USE OF THEBROMINE FOR LOWERING CENTRAL BLOOD PRESSURE” (priority 2010, published 2013).
At least one compound was matched to its structure with a doubt left.

Details: literature report; cited from earlier work

Q: With `Cn1c(=O)c2c(ncn2C)n(C)c1=O` [caffeine] as the molecule, how does the “central diastolic blood pressure (DBP) (in words)” value read?
A: Its value is “increased”.

Q: What about the “central systolic blood pressure (SBP) (in words)” value of the same molecule?
A: The value was “increased”.
